Assay results published in article PMC7251119.
These are yes or no findings as the source states them, for the method shown.

Amino acid sequences for entries named in this document (tags omitted). A change or cut given only in a name is not applied to a line headed by its entry. Residues count along the entry.
UniProt Q5ZYC6: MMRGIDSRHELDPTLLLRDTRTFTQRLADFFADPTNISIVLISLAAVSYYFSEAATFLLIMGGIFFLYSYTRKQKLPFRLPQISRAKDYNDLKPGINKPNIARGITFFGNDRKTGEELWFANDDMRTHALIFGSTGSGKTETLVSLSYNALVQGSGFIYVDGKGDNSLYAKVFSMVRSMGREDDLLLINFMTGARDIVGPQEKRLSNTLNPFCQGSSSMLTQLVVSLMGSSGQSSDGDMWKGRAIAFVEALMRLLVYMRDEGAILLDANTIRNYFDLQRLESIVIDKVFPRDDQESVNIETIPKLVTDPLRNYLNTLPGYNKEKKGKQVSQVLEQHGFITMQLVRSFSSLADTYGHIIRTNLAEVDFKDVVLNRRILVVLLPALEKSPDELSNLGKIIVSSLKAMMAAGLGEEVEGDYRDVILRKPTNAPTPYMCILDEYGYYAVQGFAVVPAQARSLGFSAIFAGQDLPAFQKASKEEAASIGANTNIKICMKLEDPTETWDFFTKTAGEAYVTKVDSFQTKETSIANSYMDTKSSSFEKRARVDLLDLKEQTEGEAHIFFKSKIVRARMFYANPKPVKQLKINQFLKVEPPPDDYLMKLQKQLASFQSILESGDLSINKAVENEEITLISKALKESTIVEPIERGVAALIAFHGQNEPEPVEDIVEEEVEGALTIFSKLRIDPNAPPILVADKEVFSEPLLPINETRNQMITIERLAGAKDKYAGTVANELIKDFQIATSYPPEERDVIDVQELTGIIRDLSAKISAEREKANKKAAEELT
UniProt Q5ZU30, residues 1-273: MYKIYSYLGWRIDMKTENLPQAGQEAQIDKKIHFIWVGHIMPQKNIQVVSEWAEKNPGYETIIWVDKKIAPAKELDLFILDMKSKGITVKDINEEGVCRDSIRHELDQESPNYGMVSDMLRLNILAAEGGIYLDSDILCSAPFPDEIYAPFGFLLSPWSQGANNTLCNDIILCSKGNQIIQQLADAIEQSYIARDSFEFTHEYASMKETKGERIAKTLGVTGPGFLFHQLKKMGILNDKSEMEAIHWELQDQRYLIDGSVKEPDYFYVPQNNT

Legend:
[1] = target: (His)10-MBP-DotL(656-783)–IcmSW–LvgA (Legionella pneumophila) (UniProt Q5ZYC6); test: native gel or EMSA; both purified
[2] = target: SetA(1-273) (Legionella pneumophila) (UniProt Q5ZU30); test: SEC; […]; 20 mM Tris-HCl (pH 7.5) plus 100 mM NaCl or 300 mM NaCl; […]; both purified

## SetA(1-273) (from UniProt Q5ZU30 1-273) (domain or fragment)
[1]
  binding: no binding
[2]
  binding: no binding
